Laboratory results published in paper PMC4276840.
Results are given in words; binding and its absence hold for the method and conditions named. Some binding calls cover weakened binding; strength is not graded here. Where a sequence is shown, tags or fusion partners need not be part of it.

Assays:
[1] = target: T1, mPDPN-Fc, recombinant Fc fusion of the mouse Podoplanin extracellular domain (mouse) (UniProt Q62011); test: platelet adhesion assay; glass-supported planar lipid bilayers with monobiotinylated mPDPN-Fc tethered via streptavidin to biotinylated lipids (mobile); washed mouse platelets 45 min at 37 °C; DIC microscopy; CLEC-2-deficient platelets as control; only the target purified
T1 sequence (chain, in the bilayer experiments, monobiotinylated; Alexa 488 or Dylight 594 label): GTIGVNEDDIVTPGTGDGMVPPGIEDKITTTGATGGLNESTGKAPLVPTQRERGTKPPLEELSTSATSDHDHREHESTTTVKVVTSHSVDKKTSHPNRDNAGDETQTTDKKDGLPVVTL

[2] = target: T1, mPDPN-Fc, recombinant Fc fusion of the mouse Podoplanin extracellular domain (mouse); test: platelet adhesion assay; static; mPDPN-Fc (10 μg/ml) coated on glass coverslips, blocked with denatured BSA; washed mouse platelets (2 x 10^7/ml) 45 min at 37 °C; DIC microscopy; CLEC-2-deficient platelets, BSA and a control Fc protein as controls; only the target purified

B1: C-type lectin receptor 2 (CLEC-2), mouse, on platelets (receptor, UniProt Q9JL99 1-229)
chain: MQDEDGYITLNIKPRKQALSSAEPASSWWRVMALVLLISSMGLVVGLVALGIMSVTQQKYLLAEKENLSATLQQLAKKFCQELIRQSEIKTKSTFEHKCSPCATKWRYHGDSCYGFFRRNLTWEESKQYCTEQNATLVKTASQSTLDYIAERITSVRWIGLSRQNSKKDWMWEDSSVLRKNGINLSGNTEENMNCAYLHNGKIHPASCKERHYLICERNAGMTRVDQLL
- binding [1]: binds
- binding [2]: binds
